LdMetRS: 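Primary screen of methionyl-tRNA synthetase; the read-out is not stated. Target: Methionyl-tRNA synthetase (putative), Leishmania donovani (UniProt E9BF75). The test concentration is not given. Values are per cent inhibition. Of about 68,000 compounds tested this way, about 24 (0.035%) reached 50% or more in at least one test.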
Mtb heat-shock: 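Assay on Mycobacterium tuberculosis, filed only as a heat shock assay from Cornell; the read-out is not stated. The concentration is filed as 10 mM, unlikely as a test dose, so the dose is not known. Higher reads as stronger inhibition (inferred: compounds with an IC50 in retests scored well above the rest). About 69,000 compounds were tested under these conditions; 1.4% (about 930) showed 50% or more at least once.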

By UniProt entry, the sequences of proteins in these tests, tags left out.
UniProt E9BF75, entry or part of it: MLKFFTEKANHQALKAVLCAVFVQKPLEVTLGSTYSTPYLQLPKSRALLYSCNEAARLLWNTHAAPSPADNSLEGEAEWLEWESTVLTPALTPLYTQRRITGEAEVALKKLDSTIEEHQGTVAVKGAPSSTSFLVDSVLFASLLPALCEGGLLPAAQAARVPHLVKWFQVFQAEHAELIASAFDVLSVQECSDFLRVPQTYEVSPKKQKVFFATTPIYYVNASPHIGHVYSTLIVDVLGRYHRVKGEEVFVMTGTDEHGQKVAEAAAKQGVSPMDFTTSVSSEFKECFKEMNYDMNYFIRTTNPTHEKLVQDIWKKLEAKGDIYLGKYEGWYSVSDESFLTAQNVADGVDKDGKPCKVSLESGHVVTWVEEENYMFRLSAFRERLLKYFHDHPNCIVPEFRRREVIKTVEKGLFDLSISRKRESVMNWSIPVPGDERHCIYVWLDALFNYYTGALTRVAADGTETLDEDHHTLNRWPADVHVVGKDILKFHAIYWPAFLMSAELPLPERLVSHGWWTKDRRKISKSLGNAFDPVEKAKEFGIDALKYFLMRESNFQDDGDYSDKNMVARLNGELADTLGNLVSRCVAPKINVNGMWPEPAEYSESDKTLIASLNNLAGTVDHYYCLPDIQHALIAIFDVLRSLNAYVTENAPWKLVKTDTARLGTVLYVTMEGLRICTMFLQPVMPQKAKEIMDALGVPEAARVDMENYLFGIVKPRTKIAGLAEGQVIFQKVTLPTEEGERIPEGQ

Results are percentages, as filed. How 0% and 100% were set is not recorded. Most values in the screen are low, and negative values occur. Compounds were drawn at random from those tested, without regard to their results. A dash means the value is not listed here; it may have been measured.

structure,LdMetRS,Mtb heat-shock
Cc1c(C(=O)NCCC(=O)N2CCCC2)oc2c(F)cccc12,4.696,4.975
CCCS(=O)(=O)N1CCC2(CCCN(c3ncc(F)cn3)C2)C1 (configuration not stated),11.78,0.6356
CCN1C(=O)C2(CCOCC2)c2cc(NC(=O)c3csnn3)ccc21,9.677,6.134
CN1CCN(C(=O)c2cc(-c3cccs3)cs2)CC1,15.58,31.77
CS(=O)(=O)NC[C@@H]1OC[C@H]2CN(C(=O)c3ccccn3)CC[C@H]21,13.33,-
CN(C)C(=O)CC1CC2(CCN(c3ncccn3)CC2)c2ccccc21.O=C(O)C(F)(F)F (configuration not stated),-,16.5
CC(C)(C)CC(=O)N1CC[C@H]2CC(=O)N(CCc3c[nH]cn3)CC[C@H]2C1,3.051,-
CC(C)NC(=O)N1CC[C@@H](N(C)C)[C@@H]1Cc1ccccc1.O=C(O)C(F)(F)F,-,7.288
Cc1nc(CNCC2CCCN2c2cccnn2)cs1 (configuration not stated),10.2,-5.734
O=S(=O)(NCc1cccnc1OC1CCCC1)N1CCCCC1,11,-12.66
O=C(CNC(=O)N1CCc2c([nH]c3ccc(Cl)cc23)C1)N1CCOCC1,10.37,0.07547
Cc1nn(CC(=O)Nc2ccon2)cc1Br,13.31,0.8506
Cc1cc(C)c2c(N(C)CC3CCOC3)ncnc2n1 (configuration not stated),8.219,-3.299
Cc1ccc2c(c1)CCC21CCN(C(=O)CO)CC1,14.17,-3.271
O=C(O)c1cncc(Cc2cccc(F)c2)c1,23.42,-11.33
Cc1nc(CN2CCCn3cnc(COCC4CC4)c3C2)cs1,17.26,-
CN(Cc1ccoc1)C(=O)Cn1ncc(N(C)C)cc1=O,2.046,2.647
O=C(O)C(F)(F)F.[H][C@]12CC(=O)N(CC3CC3)[C@@]1([H])CCN2Cc1ccccn1,-,-8.238
CCOC(C)C(=O)Nc1ccnn1-c1ccccc1C (configuration not stated),17.16,13.9
CC1CCCCN1CCNC(=O)NCc1ccc(C#N)cc1F (configuration not stated),10.43,-0.124
COc1cc(C(=O)N2CCC(c3n[nH]c(C4CC4)n3)CC2)ccc1C,1.389,-16.12
CCOC(=O)CN1CC(c2nc(-c3ccsc3)no2)C1.O=C(O)C(=O)O,-,-24.14
Cc1ccc(-c2c[nH]c([C@@H]3COCCN3Cc3ncc[nH]3)n2)cc1,9.023,38.82
CC(C)CN1CC[C@@H]2[C@H](CC1)N(C(=O)c1ccccc1)CCS2(=O)=O,-0.3497,-
COCc1cc(NCc2cccnc2Oc2ccc(C)nc2)ncn1,20.77,12.1
[H][C@@]12CS(=O)(=O)C[C@]1([H])N(C(=O)c1csc(C)n1)CCN2C(=O)N(C)C,-,7.191
O=C1C[C@H]2[C@@H](CCN2C(=O)c2ccccc2)N1CCN1CCOCC1,14.5,-
Cc1nnc2n1CCN(C(=O)c1cc(Br)c[nH]1)C2,14.21,2.687
COc1cccc2c1OCC(C(=O)N1CCC(NS(C)(=O)=O)CC1)C2 (configuration not stated),8.696,9.074
Cc1nc(O)c2nnn(C[C@H]3CCCN3C(=O)c3ccccc3C)c2n1,7.91,-19.68
O=C(CN1CCOCC1)Nc1cc(C(F)(F)F)ccc1-n1cccc1,10.24,5.925
Cc1nc(C#N)c(N2CCC(c3nc(-c4ccccc4)no3)CC2)o1,3.727,6.98
Cn1cccc1CN1CCC2(CCCN(C(=O)c3cccnc3)C2)CC1,15.07,-
CCCc1nc2c(c(C)c(C)n2Cc2ccncc2)c(N)c1CC,10.19,-23.83
Cc1nnc(C(NS(=O)(=O)c2cc(F)c(C)cc2F)C(C)C)[nH]1 (configuration not stated),12.63,2.598
O=C(O)C(F)(F)F.O=C(c1cccnc1)N1CCC2(CC1)CC(Oc1ccccc1)CO2 (configuration not stated),-,-28.88
COc1ccccc1NC(=O)NCC(O)(c1ccccc1)C1CC1 (configuration not stated),6.404,-3.833
N#CCCNC(=O)CSc1cc(F)ccc1F,11.54,8.147
O=C(O)C(F)(F)F.O=C1NCCN(CC2CC2)C12CCN(Cc1ccccc1)CC2,-,-29.41
COCCN1C[C@@H](C)[C@@]2(COCCN(C(=O)c3ccccn3)C2)C1,2.932,-

Measurements from “University of Dundee, Small-Polar-MMV Screening Library” (2021), ChEMBL document CHEMBL3988442.